Counter-ions that a name gives are not always drawn. Like-named read-outs stand apart in the source and are kept apart here.
Assay: Comparative study of various acids with a crude glycerol phase (acidification to pH about 4)
[1] = acid added until pH about 4, relative to mass of crude glycerol phase (40 g)
[2] = acidification of crude glycerol phase to pH about 4
[3] = glycerol enriched phase after acidification and decanting

SMILES	added quantity [1] [weight %]	ΔT (exotherm, increase of the temperature of the reaction mixture) [2] [°C]	IA (acid number of the glycerol enriched phase) [3]	IA (acid number of the glycerol enriched phase)	added quantity [weight %]	ΔT (exotherm, increase of the temperature of the reaction mixture) [°C]
CC(=O)O [AAc, acetic acid]	15.0	2	92 mg of KOH/g	–	–	–
CS(=O)(=O)O [MSA, methane sulfonic acid]	11.5	6	1 mg of KOH/g	–	–	–
O=P(O)(O)O [H3PO4, phosphoric acid]	11.3	6	61 mg of KOH/g	–	–	–
Cl [HCl, hydrochloric acid]	9.3	8	2 mg of KOH/g	–	–	–
O=S(=O)(O)O [H2SO4, sulfuric acid]	–	–	–	2 mg of KOH/g	4.5	12
O=C(O)CC(O)(CC(=O)O)C(=O)O [ACi, citric acid]	19.5	8	37 mg of KOH/g	–	–	–
